Some entries share one result that the patent states for a list of compounds.
Tested on: HepG2 cells
Experiment: Cytotoxicity evaluation by WST-assay
Conditions: HepG2, Dox concentration 0.1 μM, 24 hours, N=3

COc1cccc2c1C(=O)c1c(O)c3c(c(O)c1C2=O)C[C@@](O)(C(=O)CO)C[C@@H]3O[C@H]1C[C@H](N)[C@H](O)[C@H](C)O1 [Dox, Doxorubicin]
cell viability: ≥ 85%

From patent publication US20260049107A1 (priority 2023, published 2026)
